Measurements published in the supplement of paper PMC7661543.
± gives the standard deviation of the averaged measurements. The effect of the compound repeats well; differences between the knockouts mostly do not.

Tested on: SKBR3
Assay: relative cell number vs DMSO control (72 h) (% of DMSO); higher = less growth inhibition (more cells)
Protocol: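 QMAP-Seq: a pool of 5 breast cancer cell lines (ZR-75-1, SKBR3, HCC-38, MDA-MB-231, BT-20), each carrying 12 doxycycline-inducible Cas9 sgRNA perturbations (11 knockouts plus non-targeting sgNT), was treated with compounds for 72 h at four 10-fold doses (10 nM-10 uM or 1 nM-1 uM range). Barcodes were amplified and sequenced, and cell number was interpolated from 293T spike-in standard curves. The result is expressed as % of the median of DMSO wells. Two biological replicates.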

[1] = sgRNA knockout: sgATF3, 1000 nM
[2] = sgRNA knockout: sgATF4, 1000 nM
[3] = sgRNA knockout: sgATF6, 1000 nM
[4] = sgRNA knockout: sgATG7, 1000 nM
[5] = sgRNA knockout: sgERN1, 1000 nM
[6] = sgRNA knockout: sgHSF1, 1000 nM
[7] = sgRNA knockout: sgHSF2, 1000 nM
[8] = sgRNA knockout: sgKEAP1, 100 nM
[9] = sgRNA knockout: sgKEAP1, 1000 nM
[10] = sgRNA knockout: sgNFE2L2, 10 nM
[11] = sgRNA knockout: sgNFE2L2, 100 nM
[12] = sgRNA knockout: sgNFE2L2, 1000 nM
[13] = sgRNA knockout: sgSLC35F2, 10 nM
[14] = sgRNA knockout: sgSLC35F2, 100 nM
[15] = sgRNA knockout: sgSLC35F2, 1000 nM
[16] = sgRNA knockout: sgXBP1, 1000 nM
[17] = sgRNA knockout: sgATF3, 10000 nM
[18] = sgRNA knockout: sgATF4, 10000 nM
[19] = sgRNA knockout: sgATF6, 10000 nM
[20] = sgRNA knockout: sgATG7, 10000 nM
[21] = sgRNA knockout: sgERN1, 10000 nM
[22] = sgRNA knockout: sgHSF1, 10000 nM
[23] = sgRNA knockout: sgHSF2, 10000 nM
[24] = sgRNA knockout: sgKEAP1, 10000 nM
[25] = sgRNA knockout: sgNFE2L2, 10000 nM
[26] = sgRNA knockout: sgSLC35F2, 10000 nM
[27] = sgRNA knockout: sgXBP1, 10000 nM

CO[C@H]1C[C@@H]2CC[C@@H](C)[C@@](O)(O2)C(=O)C(=O)N2CCCC[C@H]2C(=O)O[C@H]([C@H](C)C[C@@H]2CC[C@@H](OCCO)[C@H](OC)C2)CC(=O)[C@H](C)/C=C(\C)[C@@H](O)[C@@H](OC)C(=O)[C@H](C)C[C@H](C)/C=C/C=C/C=C/1C [Everolimus]
relative cell number (sgRNA knockout: sgATF3, 1 nM): 82.3 ± 15 | relative cell number (sgRNA knockout: sgATF3, 10 nM): 59.7 ± 19 | relative cell number (sgRNA knockout: sgATF3, 100 nM): 61.4 ± 8.3 | relative cell number [1]: 62.4 ± 5.9 | relative cell number (sgRNA knockout: sgATF4, 1 nM): 79.6 ± 11 | relative cell number (sgRNA knockout: sgATF4, 10 nM): 68.5 ± 2.6 | relative cell number (sgRNA knockout: sgATF4, 100 nM): 62.3 ± 3 | relative cell number [2]: 65.4 ± 10 | relative cell number (sgRNA knockout: sgATF6, 1 nM): 65.5 ± 11 | relative cell number (sgRNA knockout: sgATF6, 10 nM): 81.2 ± 26 | relative cell number (sgRNA knockout: sgATF6, 100 nM): 65.91 ± 0.57 | relative cell number [3]: 73.5 ± 0.76 | relative cell number (sgRNA knockout: sgATG7, 1 nM): 70.7 ± 6 | relative cell number (sgRNA knockout: sgATG7, 10 nM): 61.26 ± 0.41 | relative cell number (sgRNA knockout: sgATG7, 100 nM): 59.7 ± 2 | relative cell number [4]: 71 ± 5.8 | relative cell number (sgRNA knockout: sgERN1, 1 nM): 63.7 ± 21 | relative cell number (sgRNA knockout: sgERN1, 10 nM): 68.5 ± 25 | relative cell number (sgRNA knockout: sgERN1, 100 nM): 80.4 ± 19 | relative cell number [5]: 64 ± 23 | relative cell number (sgRNA knockout: sgHSF1, 1 nM): 72.22 ± 0.27 | relative cell number (sgRNA knockout: sgHSF1, 10 nM): 68.4 ± 6.1 | relative cell number (sgRNA knockout: sgHSF1, 100 nM): 70 ± 17 | relative cell number [6]: 58.6 ± 10 | relative cell number (sgRNA knockout: sgHSF2, 1 nM): 65.3 ± 2.7 | relative cell number (sgRNA knockout: sgHSF2, 10 nM): 73.4 ± 7.3 | relative cell number (sgRNA knockout: sgHSF2, 100 nM): 56.9 ± 7.4 | relative cell number [7]: 65.3 ± 13 | relative cell number (sgRNA knockout: sgKEAP1, 1 nM): 68.8 ± 16 | relative cell number (sgRNA knockout: sgKEAP1, 10 nM): 56 ± 3.8 | relative cell number [8]: 59.8 ± 1.6 | relative cell number [9]: 66.5 ± 7.5 | relative cell number (sgRNA knockout: sgNFE2L2, 1 nM): 58.9 ± 6.1 | relative cell number [10]: 47.7 ± 18 | relative cell number [11]: 71 ± 13 | relative cell number [12]: 75 ± 8.8 | relative cell number (sgRNA knockout: sgSLC35F2, 1 nM): 71.5 ± 1.5 | relative cell number [13]: 66.9 ± 14 | relative cell number [14]: 66.8 ± 18 | relative cell number [15]: 70.9 ± 24 | relative cell number (sgRNA knockout: sgXBP1, 1 nM): 74 ± 6.9 | relative cell number (sgRNA knockout: sgXBP1, 10 nM): 56.2 ± 1.9 | relative cell number (sgRNA knockout: sgXBP1, 100 nM): 71.2 ± 14 | relative cell number [16]: 75.3 ± 2.5

Nc1nc(OCc2cc(Br)cs2)c2[nH]cnc2n1 [Lomeguatrib]
relative cell number (sgRNA knockout: sgATF3, 10 nM): 108 ± 30 | relative cell number (sgRNA knockout: sgATF3, 100 nM): 105 ± 6.4 | relative cell number [1]: 71.4 ± 12 | relative cell number [17]: 96.9 ± 34 | relative cell number (sgRNA knockout: sgATF4, 10 nM): 90.3 ± 2.5 | relative cell number (sgRNA knockout: sgATF4, 100 nM): 90.4 ± 22 | relative cell number [2]: 99.9 ± 28 | relative cell number [18]: 92.6 ± 2 | relative cell number (sgRNA knockout: sgATF6, 10 nM): 95.3 ± 23 | relative cell number (sgRNA knockout: sgATF6, 100 nM): 91 ± 21 | relative cell number [3]: 114 ± 24 | relative cell number [19]: 78.4 ± 4.8 | relative cell number (sgRNA knockout: sgATG7, 10 nM): 99.3 ± 5.6 | relative cell number (sgRNA knockout: sgATG7, 100 nM): 87.4 ± 20 | relative cell number [4]: 98.5 ± 20 | relative cell number [20]: 101 ± 24 | relative cell number (sgRNA knockout: sgERN1, 10 nM): 96.3 ± 9.6 | relative cell number (sgRNA knockout: sgERN1, 100 nM): 95.9 ± 9.9 | relative cell number [5]: 100 ± 25 | relative cell number [21]: 81.6 ± 21 | relative cell number (sgRNA knockout: sgHSF1, 10 nM): 91.5 ± 7.1 | relative cell number (sgRNA knockout: sgHSF1, 100 nM): 83.8 ± 2.5 | relative cell number [6]: 102 ± 38 | relative cell number [22]: 63.5 ± 1.5 | relative cell number (sgRNA knockout: sgHSF2, 10 nM): 96.8 ± 8.5 | relative cell number (sgRNA knockout: sgHSF2, 100 nM): 88.9 ± 6.3 | relative cell number [7]: 95.4 ± 15 | relative cell number [23]: 74 ± 27 | relative cell number (sgRNA knockout: sgKEAP1, 10 nM): 93.8 ± 13 | relative cell number [8]: 94.9 ± 28 | relative cell number [9]: 90.6 ± 17 | relative cell number [24]: 90.9 ± 4.8 | relative cell number [10]: 84.9 ± 1.7 | relative cell number [11]: 114 ± 22 | relative cell number [12]: 86.4 ± 14 | relative cell number [25]: 81.4 ± 9.3 | relative cell number [13]: 109.2 ± 0.86 | relative cell number [14]: 98.1 ± 7.3 | relative cell number [15]: 96.8 ± 3.3 | relative cell number [26]: 85.7 ± 14 | relative cell number (sgRNA knockout: sgXBP1, 10 nM): 99.1 ± 6.1 | relative cell number (sgRNA knockout: sgXBP1, 100 nM): 88.5 ± 14 | relative cell number [16]: 70 ± 2.6 | relative cell number [27]: 87.3 ± 10

CC(C)n1c(/C=C/C(O)CC(O)CC(=O)O)c(-c2ccc(F)cc2)c2ccccc21 (configuration not stated) [Fluvastatin]
relative cell number (sgRNA knockout: sgATF3, 10 nM): 85.7 ± 35 | relative cell number (sgRNA knockout: sgATF3, 100 nM): 96.2 ± 22 | relative cell number [1]: 83.3 ± 9.5 | relative cell number [17]: 50.6 ± 0.98 | relative cell number (sgRNA knockout: sgATF4, 10 nM): 101 ± 2.2 | relative cell number (sgRNA knockout: sgATF4, 100 nM): 103 ± 1.1 | relative cell number [2]: 79.8 ± 8.6 | relative cell number [18]: 54.9 ± 11 | relative cell number (sgRNA knockout: sgATF6, 10 nM): 84.4 ± 11 | relative cell number (sgRNA knockout: sgATF6, 100 nM): 84.01 ± 0.62 | relative cell number [3]: 74.1 ± 1.8 | relative cell number [19]: 49.1 ± 6.6 | relative cell number (sgRNA knockout: sgATG7, 10 nM): 83.8 ± 40 | relative cell number (sgRNA knockout: sgATG7, 100 nM): 101 ± 11 | relative cell number [4]: 94.9 ± 32 | relative cell number [20]: 60.9 ± 22 | relative cell number (sgRNA knockout: sgERN1, 10 nM): 108 ± 43 | relative cell number (sgRNA knockout: sgERN1, 100 nM): 128 ± 20 | relative cell number [5]: 85.2 ± 10 | relative cell number [21]: 60 ± 3.2 | relative cell number (sgRNA knockout: sgHSF1, 10 nM): 86.3 ± 5 | relative cell number (sgRNA knockout: sgHSF1, 100 nM): 106 ± 7.4 | relative cell number [6]: 83 ± 34 | relative cell number [22]: 63.3 ± 15 | relative cell number (sgRNA knockout: sgHSF2, 10 nM): 84.1 ± 18 | relative cell number (sgRNA knockout: sgHSF2, 100 nM): 109 ± 21 | relative cell number [7]: 101 ± 38 | relative cell number [23]: 60.8 ± 22 | relative cell number (sgRNA knockout: sgKEAP1, 10 nM): 76 ± 28 | relative cell number [8]: 74.3 ± 20 | relative cell number [9]: 75.4 ± 12 | relative cell number [24]: 54.7 ± 22 | relative cell number [10]: 90.7 ± 10 | relative cell number [11]: 99.5 ± 14 | relative cell number [12]: 85.5 ± 8.8 | relative cell number [25]: 47.4 ± 14 | relative cell number [13]: 67.4 ± 25 | relative cell number [14]: 90.4 ± 16 | relative cell number [15]: 101 ± 2.9 | relative cell number [26]: 46.6 ± 7.5 | relative cell number (sgRNA knockout: sgXBP1, 10 nM): 67.9 ± 8.8 | relative cell number (sgRNA knockout: sgXBP1, 100 nM): 83.9 ± 3.7 | relative cell number [16]: 81.8 ± 16 | relative cell number [27]: 52 ± 5.9
